PubChem BioAssay AID504764 – Drosophila RNAi Screening Center – 2011
The screen tested about 22,000 reagents; this is a random part of those with a known target gene and a result. Over the whole deposit, 403 (1.9%) are marked active. 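Unnormalised raw counts per well; ratio z-scores behind the hit calls and whether each hit raises or lowers signal are not deposited.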 A plus sign joins genes that one reagent is predicted to hit. No sequences are given here. The record does not give: the amount of reagent.

Assay: 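Genes whose knock-down alters Notch-dependent transcription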 (primary screen)
Cell system: Drosophila Kc167 cells
Reagents: long dsRNA against Drosophila genes
Duration: about 5 days (4 days dsRNA, then 24 h after transfection)
Treatment: transfection of constitutively active membrane-tethered Notch lacking the extracellular domain, read 24 h later
Read-out: 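Light from a Notch-responsive E(spl)m3 luciferase reporter under active Notch, with control-promoter and no-Notch reporter wells to normalise; raw counts from paired wells a and b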
Scale: induced reporter light, run 1, well a and induced reporter light, run 1, well b: higher = more light from the Notch target reporter with active Notch; control promoter light, run 1, well a and control promoter light, run 1, well b: higher = more light from the viral control promoter (cell number, transfection, viability); uninduced reporter light, run 1, well a: higher = more light from the Notch target reporter without active Notch
Active means: 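Wells with low control signal or poorly matching duplicates excluded; duplicates averaged; per source plate, z beyond ±2 for induced/control log2 ratio or beyond ±1.8 for induced/uninduced marks a hit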
Calls: active = modifier hit (raised or lowered Notch signal); inactive = not a hit

target	DRSC id	induced reporter light, run 1, well a	induced reporter light, run 1, well b	control promoter light, run 1, well a	control promoter light, run 1, well b	uninduced reporter light, run 1, well a	outcome
Cyp4d8 (Cytochrome P450 4d8)	DRSC11131	99610	1.19e5	74085	26780	9890	inactive
Jhe (Juvenile hormone esterase)	DRSC07174	39130	26760	33885	30980	3930	inactive
az2	DRSC07580	1.91e5	1.94e5	1.79e5	2.00e5	15820	inactive
CG33268	DRSC10143	1.77e5	1.44e5	2.50e5	1.99e5	9605	inactive
CG12460 (retired record)	DRSC20970	72230	76470	64915	89395	9535	inactive
ND-B15 (NADH dehydrogenase (ubiquinone) B15 subunit)	DRSC06199	71860	79700	98525	92580	7025	inactive
PIG-K (Phosphatidylinositol glycan anchor biosynthesis class K)	DRSC18496	89360	94190	1.75e5	1.55e5	8942	inactive
dind (diamond)	DRSC16294	1.36e5	2.17e5	2.01e5	2.56e5	13900	inactive
arm (armadillo)	DRSC18738	1.93e5	2.38e5	2.27e5	2.61e5	16540	inactive
CG9018	DRSC08618	1.18e5	1.39e5	2.07e5	2.42e5	6095	inactive
CG34214	DRSC04490	1.84e5	1.98e5	1.96e5	2.05e5	15025	inactive
otk (off-track)	DRSC07658	1.07e5	1.27e5	1.30e5	1.26e5	10405	inactive
Ogg1 (8-oxoguanine DNA glycosylase)	DRSC17738	1.90e5	1.97e5	2.57e5	2.99e5	14110	inactive
CG5196	DRSC15735	87320	84225	65320	51820	4850	inactive
l(3)07882 (lethal (3) 07882)	DRSC15882	1.76e5	1.78e5	1.74e5	1.64e5	14670	inactive
CSN5 (COP9 signalosome subunit 5)	DRSC16592	1.85e5	1.77e5	2.05e5	1.90e5	17715	inactive
CG3635	DRSC03729	52760	54820	46400	68195	3655	inactive
CG14830	DRSC08876	1.76e5	1.76e5	2.10e5	3.32e5	10950	active
CG14830	DRSC10200	3.24e5	2.24e5	2.36e5	2.46e5	12138	inactive
CG33127	DRSC00011	1.39e5	1.08e5	1.64e5	1.82e5	8400	inactive
Tasp1 (Taspase 1)	DRSC10495	1.10e5	1.18e5	78980	1.01e5	10350	inactive
Gbp1 (Growth-blocking peptide 1)	DRSC06592	89195	1.02e5	1.12e5	85515	7085	inactive
CG10654	DRSC09767	1.50e5	1.56e5	2.46e5	1.78e5	8515	inactive
mRpL22 (mitochondrial ribosomal protein L22)	DRSC19915	47810	56430	64890	67285	5700	inactive
ScsbetaG (Succinyl-coenzyme A synthetase beta subunit, GDP-forming)	DRSC11294	2.53e5	2.49e5	2.01e5	2.65e5	15010	inactive
Fbw5 (F-box and WD repeat domain containing 5)	DRSC03146	87340	82535	95115	92890	3980	inactive
CG12535	DRSC17838	1.45e5	1.35e5	2.18e5	1.86e5	6840	inactive
CG14478	DRSC06450	1.36e5	77840	82160	1.00e5	12495	inactive
Plap (Phospholipase A2 activator protein)	DRSC00678	1.77e5	1.75e5	2.18e5	1.73e5	16570	inactive
CG8500	DRSC16434	57160	47675	52490	37635	3532	inactive
B-H1 (BarH1)	DRSC19334	1.77e5	1.63e5	1.81e5	2.07e5	20580	inactive
B-H1 (BarH1)	DRSC21922						inactive
Sec10 (Secretory 10)	DRSC17053	62850	83485	66145	80320	6335	inactive
CG17637	DRSC11740	1.08e5	78600	58095	57240	6155	inactive
Rh4 (Rhodopsin 4)	DRSC11268	2.15e5	2.45e5	2.49e5	1.60e5	8890	active
CG2991	DRSC00559	1.69e5	1.97e5	1.87e5	2.05e5	18175	inactive
melt (melted)	DRSC11367	1.76e5	1.85e5	2.04e5	1.52e5	9590	inactive
CG10077	DRSC09691	80525	77160	61745	22095	7085	inactive
BOD1 (Biorientation Defective 1)	DRSC15824	1.85e5	2.05e5	2.39e5	2.28e5	14230	inactive
Ugt36A1 (UDP-glycosyltransferase family 36 member A1)	DRSC00748	2.61e5	1.94e5	2.53e5	2.12e5	14320	inactive
chb (chromosome bows)	DRSC11469	1.86e5	1.85e5	2.68e5	2.31e5	15560	inactive
CG13068	DRSC09951	2.03e5	1.71e5	2.38e5	2.35e5	6850	inactive
Efr (ER GDP-fucose transporter)	DRSC18322	1.23e5	1.33e5	2.25e5	2.40e5	9805	inactive
DJ-1alpha	DRSC07005	66820	84585	1.10e5	1.17e5	8570	inactive
zda (zonda)	DRSC06936	83965	92085	1.52e5	1.83e5	7635	inactive
Smyd5 (SET and MYND domain containing, class 5)	DRSC15483	2.55e5	2.32e5	2.39e5	2.74e5	20595	inactive
moi + Tgs1	DRSC16371	1.48e5	1.31e5	1.82e5	2.04e5	11290	inactive
CG17593	DRSC00504	1.75e5	1.67e5	2.23e5	2.29e5	9195	inactive
und (uninitiated)	DRSC03629	2.49e5	2.48e5	2.37e5	2.24e5	18795	inactive
mud (mushroom body defect)	DRSC19019	1.03e5	90830	1.01e5	1.04e5	7982	inactive

8 of these entries, reformatted.
| target | DRSC id | induced reporter light, run 1, well a | induced reporter light, run 1, well b | control promoter light, run 1, well a | control promoter light, run 1, well b | uninduced reporter light, run 1, well a | outcome |
| --- | --- | --- | --- | --- | --- | --- | --- |
| CG12535 | DRSC17838 | 1.45e5 | 1.35e5 | 2.18e5 | 1.86e5 | 6840 | inactive |
| CG14478 | DRSC06450 | 1.36e5 | 77840 | 82160 | 1.00e5 | 12495 | inactive |
| Plap (Phospholipase A2 activator protein) | DRSC00678 | 1.77e5 | 1.75e5 | 2.18e5 | 1.73e5 | 16570 | inactive |
| CG8500 | DRSC16434 | 57160 | 47675 | 52490 | 37635 | 3532 | inactive |
| B-H1 (BarH1) | DRSC19334 | 1.77e5 | 1.63e5 | 1.81e5 | 2.07e5 | 20580 | inactive |
| B-H1 (BarH1) | DRSC21922 | – | – | – | – | – | inactive |
| Sec10 (Secretory 10) | DRSC17053 | 62850 | 83485 | 66145 | 80320 | 6335 | inactive |
| CG17637 | DRSC11740 | 1.08e5 | 78600 | 58095 | 57240 | 6155 | inactive |
